Publication PMC5290407
No constants are given. Whether binding was seen depends on the method and setting. In cells and extracts the contact can be indirect. Some binding calls cover weakened binding; strength is not graded here. Where a sequence is shown, tags or fusion partners need not be part of it.

Protein sequences, listed by entry. Tags and fused reporters are not part of them.
UniProt Q96B97: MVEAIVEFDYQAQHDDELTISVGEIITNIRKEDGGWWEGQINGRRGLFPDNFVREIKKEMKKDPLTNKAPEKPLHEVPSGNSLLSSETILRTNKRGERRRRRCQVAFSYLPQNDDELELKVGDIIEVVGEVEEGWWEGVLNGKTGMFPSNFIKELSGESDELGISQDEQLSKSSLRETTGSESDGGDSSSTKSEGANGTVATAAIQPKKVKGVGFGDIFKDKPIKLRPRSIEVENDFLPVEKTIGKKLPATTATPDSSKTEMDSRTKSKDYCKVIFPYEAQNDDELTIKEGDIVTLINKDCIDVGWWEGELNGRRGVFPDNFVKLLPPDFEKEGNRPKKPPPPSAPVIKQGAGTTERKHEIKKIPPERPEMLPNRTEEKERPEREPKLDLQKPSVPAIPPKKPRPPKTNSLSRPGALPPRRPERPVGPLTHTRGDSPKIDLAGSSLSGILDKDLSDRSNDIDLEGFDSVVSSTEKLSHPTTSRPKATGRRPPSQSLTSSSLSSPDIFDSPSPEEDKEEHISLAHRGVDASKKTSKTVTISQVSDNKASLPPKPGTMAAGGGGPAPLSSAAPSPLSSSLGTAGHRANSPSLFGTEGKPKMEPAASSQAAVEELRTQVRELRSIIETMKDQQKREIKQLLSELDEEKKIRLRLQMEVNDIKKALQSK

B1: HA-ACOT8 (protein, UniProt O14734 1-319)
chain: MSSPQAPEDGQGCGDRGDPPGDLRSVLVTTVLNLEPLDEDLFRGRHYWVPAKRLFGGQIVGQALVAAAKSVSEDVHVHSLHCYFVRAGDPKLPVLYQVERTRTGSSFSVRSVKAVQHGKPIFICQASFQQAQPSPMQHQFSMPTVPPPEELLDCETLIDQYLRDPNLQKRYPLALNRIAAQEVPIEIKPVNPSPLSQLQRMEPKQMFWVRARGYIGEGDMKMHCCVAAYISDYAFLGTALLPHQWQHKVHFMVSLDHSMWFHAPFRADHWMLYECESPWAGGSRGLVHGRLWRQDGVLAVTCAQEGVIRVKPQVSESKL
B2: PHKA2-myc-FLAG (protein, UniProt P46019 1-1235)
chain: MRSRSNSGVRLDGYARLVQQTILCYQNPVTGLLSASHEQKDAWVRDNIYSILAVWGLGMAYRKNADRDEDKAKAYELEQNVVKLMRGLLQCMMRQVAKVEKFKHTQSTKDSLHAKYNTATCGTVVGDDQWGHLQVDATSLFLLFLAQMTASGLRIIFTLDEVAFIQNLVFYIEAAYKVADYGMWERGDKTNQGIPELNASSVGMAKAALEAIDELDLFGAHGGRKSVIHVLPDEVEHCQSILFSMLPRASTSKEIDAGLLSIISFPAFAVEDVNLVNVTKNEIISKLQGRYGCCRFLRDGYKTPREDPNRLHYDPAELKLFENIECEWPVFWTYFIIDGVFSGDAVQVQEYREALEGILIRGKNGIRLVPELYAVPPNKVDEEYKNPHTVDRVPMGKVPHLWGQSLYILSSLLAEGFLAAGEIDPLNRRFSTSVKPDVVVQVTVLAENNHIKDLLRKHGVNVQSIADIHPIQVQPGRILSHIYAKLGRNKNMNLSGRPYRHIGVLGTSKLYVIRNQIFTFTPQFTDQHHFYLALDNEMIVEMLRIELAYLCTCWRMTGRPTLTFPISRTMLTNDGSDIHSAVLSTIRKLEDGYFGGARVKLGNLSEFLTTSFYTYLTFLDPDCDEKLFDNASEGTFSPDSDSDLVGYLEDTCNQESQDELDHYINHLLQSTSLRSYLPPLCKNTEDRHVFSAIHSTRDILSVMAKAKGLEVPFVPMTLPTKVLSAHRKSLNLVDSPQPLLEKVPESDFQWPRDDHGDVDCEKLVEQLKDCSNLQDQADILYILYVIKGPSWDTNLSGQHGVTVQNLLGELYGKAGLNQEWGLIRYISGLLRKKVEVLAEACTDLLSHQKQLTVGLPPEPREKIISAPLPPEELTKLIYEASGQDISIAVLTQEIVVYLAMYVRAQPSLFVEMLRLRIGLIIQVMATELARSLNCSGEEASESLMNLSPFDMKNLLHHILSGKEFGVERSVRPIHSSTSSPTISIHEVGHTGVTKTERSGINRLRSEMKQMTRRFSADEQFFSVGQAASSSAHSSKSARSSTPSSPTGTSSSDSGGHHIGWGERQGQWLRRRRLDGAINRVPVGFYQRVWKILQKCHGLSIDGYVLPSSTTREMTPHEIKFAVHVESVLNRVPQPEYRQLLVEAIMVLTLLSDTEMTSIGGIIHVDQIVQMASQLFLQDQVSIGAMDTLEKDQATGICHFFYDSAPSGAYGTMTYLTRAVASYLQELLPNSGCQMQ

What follows are molecules tested against T1, UGT1A9-myc/his (human) (UniProt O60656) (assay: co-IP; HEK293 stably expressing UGT1A9-myc/his, transiently transfected with the tagged partner; lysis buffer B (50 mM Tris-HCl pH 7.4, 150 mM NaCl, 1% Igepal, 1 mM DTT), 4°C; IP with purified anti-UGT1A (control rabbit IgG), immunoblot with anti-tag antibodies).
T1 sequence: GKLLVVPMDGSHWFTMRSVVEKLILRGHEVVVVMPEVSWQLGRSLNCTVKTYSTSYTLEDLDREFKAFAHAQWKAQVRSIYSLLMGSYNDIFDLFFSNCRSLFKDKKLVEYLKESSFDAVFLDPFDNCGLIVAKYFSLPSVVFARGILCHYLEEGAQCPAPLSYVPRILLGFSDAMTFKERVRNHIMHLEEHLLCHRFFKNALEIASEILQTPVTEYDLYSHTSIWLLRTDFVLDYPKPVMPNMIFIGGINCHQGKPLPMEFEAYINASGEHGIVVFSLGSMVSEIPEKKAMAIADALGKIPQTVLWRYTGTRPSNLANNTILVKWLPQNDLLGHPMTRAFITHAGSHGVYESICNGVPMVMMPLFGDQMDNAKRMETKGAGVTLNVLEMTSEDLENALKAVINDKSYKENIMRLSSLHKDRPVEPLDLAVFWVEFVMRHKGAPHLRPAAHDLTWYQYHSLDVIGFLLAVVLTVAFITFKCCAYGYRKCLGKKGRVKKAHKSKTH

binding, binds:
FLAG-SH3KBP1 (from UniProt Q96B97 1-665)
B1
B2
